The results in this text go back to publication PMC3390401, “Phosphorylation-Dependent Interactions between Crb2 and Chk1 Are Essential for DNA Damage Checkpoint” (PLoS Genetics, 2012).

These are yes or no findings as the source states them, for the method shown. Tags and fused reporters may be left off the sequences shown.

For the experiment, the target named is Hta1(120–132-pS129) peptide (S. pombe) (UniProt P04909). In words: pull-down; Same peptide pull-down repeated; eluates and serial dilutions of Chk1-YFH input examined by immunoblotting with an anti-GFP antibody; both purified.

B1: YFP-Flag-His6 (YFH)-tagged Chk1 (enzyme, UniProt P34208 1-496)
chain: MAQKLDNFPYHIGREIGTGAFASVRLCYDDNAKIYAVKFVNKKHATSCMNAGVWARRMASEIQLHKLCNGHKNIIHFYNTAENPQWRWVVLEFAQGGDLFDKIEPDVGIDEDVAQFYFAQLMEGISFMHSKGVAHRDLKPENILLDYNGNLKISDFGFASLFSYKGKSRLLNSPVGSPPYAAPEITQQYDGSKVDVWSCGIILFALLLGNTPWDEAISNTGDYLLYKKQCERPSYHPWNLLSPGAYSIITGMLRSDPFKRYSVKHVVQHPWLTSSTPFRTKNGNCADPVALASRLMLKLRIDLDKPRLASSRASQNDSGFSMTQPAFKKNDQKELDRVEVYGALSQPVQLNKNIDVTEILEKDPSLSQFCENEGFIKRLAKKAKNFYEICPPERLTRFYSRASRETIIDHLYDSLRLLAISVTMKYVRNQTILYVNLHDKRKCLLQGVIELTNLGHNLELINFIKRNGDPLEWRKFFKNVVSSIGKPIVLTDVSQN
In the case of B1, the binding entry was “no binding”.
